Reference: article PMC10795463
Results are given in words; binding and its absence hold for the method and conditions named. In cells and extracts the contact can be indirect. Some binding calls cover weakened binding; strength is not graded here.

The chains behind the UniProt entries cited, without tags or fusion partners.
UniProt Q86U44: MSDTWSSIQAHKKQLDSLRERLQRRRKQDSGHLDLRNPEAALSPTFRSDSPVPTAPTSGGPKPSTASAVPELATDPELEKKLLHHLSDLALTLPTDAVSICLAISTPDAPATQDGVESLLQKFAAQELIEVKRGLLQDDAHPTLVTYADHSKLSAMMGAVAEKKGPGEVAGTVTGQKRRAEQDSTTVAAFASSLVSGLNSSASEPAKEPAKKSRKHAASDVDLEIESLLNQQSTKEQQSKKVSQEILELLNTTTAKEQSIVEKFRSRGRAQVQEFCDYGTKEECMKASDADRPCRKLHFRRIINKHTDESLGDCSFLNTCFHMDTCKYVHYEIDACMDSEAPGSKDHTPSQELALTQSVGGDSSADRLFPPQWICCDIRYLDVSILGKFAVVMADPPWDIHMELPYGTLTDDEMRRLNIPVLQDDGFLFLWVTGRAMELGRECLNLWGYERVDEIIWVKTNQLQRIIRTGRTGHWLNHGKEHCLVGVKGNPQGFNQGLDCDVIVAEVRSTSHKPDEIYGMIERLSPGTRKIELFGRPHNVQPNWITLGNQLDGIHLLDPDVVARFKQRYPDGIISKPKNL
UniProt P60228: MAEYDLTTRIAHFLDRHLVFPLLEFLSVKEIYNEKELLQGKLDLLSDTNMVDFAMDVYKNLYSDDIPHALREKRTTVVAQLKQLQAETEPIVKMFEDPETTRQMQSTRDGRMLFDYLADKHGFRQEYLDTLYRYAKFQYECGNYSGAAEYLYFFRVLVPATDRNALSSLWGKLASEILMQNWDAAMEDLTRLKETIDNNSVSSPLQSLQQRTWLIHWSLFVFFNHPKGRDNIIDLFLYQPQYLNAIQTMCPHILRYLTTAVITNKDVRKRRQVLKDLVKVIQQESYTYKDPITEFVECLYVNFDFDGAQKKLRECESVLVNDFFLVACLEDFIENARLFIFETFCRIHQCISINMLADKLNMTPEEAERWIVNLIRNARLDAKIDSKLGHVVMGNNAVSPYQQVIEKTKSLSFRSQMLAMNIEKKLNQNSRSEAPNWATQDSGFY
UniProt Q13347: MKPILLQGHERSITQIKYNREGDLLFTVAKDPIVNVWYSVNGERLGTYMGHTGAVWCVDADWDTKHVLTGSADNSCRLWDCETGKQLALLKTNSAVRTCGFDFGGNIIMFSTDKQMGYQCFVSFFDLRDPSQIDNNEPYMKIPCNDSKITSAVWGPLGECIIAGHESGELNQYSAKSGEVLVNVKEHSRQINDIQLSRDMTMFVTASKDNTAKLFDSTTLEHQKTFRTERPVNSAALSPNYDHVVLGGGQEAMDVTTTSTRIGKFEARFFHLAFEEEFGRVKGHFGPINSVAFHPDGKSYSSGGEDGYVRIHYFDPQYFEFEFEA

Target: METTL3 (human (endogenous in A549)) (UniProt Q86U44)
Test: co-IP; lysates in RIPA buffer, 500 µg total protein, 4 µg antibody at 4 °C for 16 h, protein G agarose beads 3 h; blots with anti-METTL3, anti-eIF4E, anti-eIF3e, anti-eIF3i

Substance | binding
eIF3e (from UniProt P60228 1-445) | binds
eIF3i (from UniProt Q13347 1-325) | binds
